Test results taken from BigSolDB 2.1.

CCN(CC)CC(=O)Nc1c(C)cccc1C
solubility (mole fraction)
Settings	292.15 K	297.15 K	302.15 K	307.15 K	312.15 K	317.15 K	322.15 K	327.15 K	332.15 K
in acetone	0.66	0.69	0.73	0.74	0.77	0.82	0.84	0.87	0.91
in ethanol	0.43	0.47	0.52	0.56	0.62	0.67	0.73	0.8	0.86
in ethyl acetate	0.6	0.63	0.69	0.72	0.75	0.78	0.8	0.85	0.89
in isobutanol	0.65	0.68	0.71	0.74	0.76	0.79	0.82	0.86	0.9
in isopropanol	0.6	0.62	0.66	0.7	0.74	0.76	0.79	0.83	0.89
in methyl acetate	0.51	0.55	0.61	0.66	0.71	0.74	0.78	0.84	0.88
in n-butanol	0.64	0.67	0.7	0.74	0.76	0.77	0.8	0.84	0.89
in n-propanol	0.64	0.67	0.7	0.74	0.76	0.79	0.82	0.85	0.9
